Here are results for 14 molecules from article doi:10.1101/2024.09.03.611033.

Protein sequences, listed by entry. Tags and fused reporters are not part of them.
UniProt Q9UNE7: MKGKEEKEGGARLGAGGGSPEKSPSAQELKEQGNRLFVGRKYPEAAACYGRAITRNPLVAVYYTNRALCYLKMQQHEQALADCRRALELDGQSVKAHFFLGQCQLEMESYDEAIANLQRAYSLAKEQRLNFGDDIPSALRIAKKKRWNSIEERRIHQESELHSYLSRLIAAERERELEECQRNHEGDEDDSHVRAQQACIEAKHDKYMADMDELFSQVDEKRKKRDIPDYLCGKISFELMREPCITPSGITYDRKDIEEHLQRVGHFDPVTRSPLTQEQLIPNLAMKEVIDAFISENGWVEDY
UniProt Q13148: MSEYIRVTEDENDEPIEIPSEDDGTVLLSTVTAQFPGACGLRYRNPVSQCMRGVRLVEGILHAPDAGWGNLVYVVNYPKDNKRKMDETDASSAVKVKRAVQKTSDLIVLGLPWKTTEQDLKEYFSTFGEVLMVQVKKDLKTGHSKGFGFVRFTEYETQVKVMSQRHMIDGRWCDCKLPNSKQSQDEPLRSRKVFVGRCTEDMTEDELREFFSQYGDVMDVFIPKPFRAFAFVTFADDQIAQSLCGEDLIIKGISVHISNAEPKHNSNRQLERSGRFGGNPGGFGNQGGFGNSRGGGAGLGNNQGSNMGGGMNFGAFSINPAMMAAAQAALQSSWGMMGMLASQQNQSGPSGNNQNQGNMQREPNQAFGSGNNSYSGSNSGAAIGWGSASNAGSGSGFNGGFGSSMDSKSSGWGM
UniProt Q7Z6Z7: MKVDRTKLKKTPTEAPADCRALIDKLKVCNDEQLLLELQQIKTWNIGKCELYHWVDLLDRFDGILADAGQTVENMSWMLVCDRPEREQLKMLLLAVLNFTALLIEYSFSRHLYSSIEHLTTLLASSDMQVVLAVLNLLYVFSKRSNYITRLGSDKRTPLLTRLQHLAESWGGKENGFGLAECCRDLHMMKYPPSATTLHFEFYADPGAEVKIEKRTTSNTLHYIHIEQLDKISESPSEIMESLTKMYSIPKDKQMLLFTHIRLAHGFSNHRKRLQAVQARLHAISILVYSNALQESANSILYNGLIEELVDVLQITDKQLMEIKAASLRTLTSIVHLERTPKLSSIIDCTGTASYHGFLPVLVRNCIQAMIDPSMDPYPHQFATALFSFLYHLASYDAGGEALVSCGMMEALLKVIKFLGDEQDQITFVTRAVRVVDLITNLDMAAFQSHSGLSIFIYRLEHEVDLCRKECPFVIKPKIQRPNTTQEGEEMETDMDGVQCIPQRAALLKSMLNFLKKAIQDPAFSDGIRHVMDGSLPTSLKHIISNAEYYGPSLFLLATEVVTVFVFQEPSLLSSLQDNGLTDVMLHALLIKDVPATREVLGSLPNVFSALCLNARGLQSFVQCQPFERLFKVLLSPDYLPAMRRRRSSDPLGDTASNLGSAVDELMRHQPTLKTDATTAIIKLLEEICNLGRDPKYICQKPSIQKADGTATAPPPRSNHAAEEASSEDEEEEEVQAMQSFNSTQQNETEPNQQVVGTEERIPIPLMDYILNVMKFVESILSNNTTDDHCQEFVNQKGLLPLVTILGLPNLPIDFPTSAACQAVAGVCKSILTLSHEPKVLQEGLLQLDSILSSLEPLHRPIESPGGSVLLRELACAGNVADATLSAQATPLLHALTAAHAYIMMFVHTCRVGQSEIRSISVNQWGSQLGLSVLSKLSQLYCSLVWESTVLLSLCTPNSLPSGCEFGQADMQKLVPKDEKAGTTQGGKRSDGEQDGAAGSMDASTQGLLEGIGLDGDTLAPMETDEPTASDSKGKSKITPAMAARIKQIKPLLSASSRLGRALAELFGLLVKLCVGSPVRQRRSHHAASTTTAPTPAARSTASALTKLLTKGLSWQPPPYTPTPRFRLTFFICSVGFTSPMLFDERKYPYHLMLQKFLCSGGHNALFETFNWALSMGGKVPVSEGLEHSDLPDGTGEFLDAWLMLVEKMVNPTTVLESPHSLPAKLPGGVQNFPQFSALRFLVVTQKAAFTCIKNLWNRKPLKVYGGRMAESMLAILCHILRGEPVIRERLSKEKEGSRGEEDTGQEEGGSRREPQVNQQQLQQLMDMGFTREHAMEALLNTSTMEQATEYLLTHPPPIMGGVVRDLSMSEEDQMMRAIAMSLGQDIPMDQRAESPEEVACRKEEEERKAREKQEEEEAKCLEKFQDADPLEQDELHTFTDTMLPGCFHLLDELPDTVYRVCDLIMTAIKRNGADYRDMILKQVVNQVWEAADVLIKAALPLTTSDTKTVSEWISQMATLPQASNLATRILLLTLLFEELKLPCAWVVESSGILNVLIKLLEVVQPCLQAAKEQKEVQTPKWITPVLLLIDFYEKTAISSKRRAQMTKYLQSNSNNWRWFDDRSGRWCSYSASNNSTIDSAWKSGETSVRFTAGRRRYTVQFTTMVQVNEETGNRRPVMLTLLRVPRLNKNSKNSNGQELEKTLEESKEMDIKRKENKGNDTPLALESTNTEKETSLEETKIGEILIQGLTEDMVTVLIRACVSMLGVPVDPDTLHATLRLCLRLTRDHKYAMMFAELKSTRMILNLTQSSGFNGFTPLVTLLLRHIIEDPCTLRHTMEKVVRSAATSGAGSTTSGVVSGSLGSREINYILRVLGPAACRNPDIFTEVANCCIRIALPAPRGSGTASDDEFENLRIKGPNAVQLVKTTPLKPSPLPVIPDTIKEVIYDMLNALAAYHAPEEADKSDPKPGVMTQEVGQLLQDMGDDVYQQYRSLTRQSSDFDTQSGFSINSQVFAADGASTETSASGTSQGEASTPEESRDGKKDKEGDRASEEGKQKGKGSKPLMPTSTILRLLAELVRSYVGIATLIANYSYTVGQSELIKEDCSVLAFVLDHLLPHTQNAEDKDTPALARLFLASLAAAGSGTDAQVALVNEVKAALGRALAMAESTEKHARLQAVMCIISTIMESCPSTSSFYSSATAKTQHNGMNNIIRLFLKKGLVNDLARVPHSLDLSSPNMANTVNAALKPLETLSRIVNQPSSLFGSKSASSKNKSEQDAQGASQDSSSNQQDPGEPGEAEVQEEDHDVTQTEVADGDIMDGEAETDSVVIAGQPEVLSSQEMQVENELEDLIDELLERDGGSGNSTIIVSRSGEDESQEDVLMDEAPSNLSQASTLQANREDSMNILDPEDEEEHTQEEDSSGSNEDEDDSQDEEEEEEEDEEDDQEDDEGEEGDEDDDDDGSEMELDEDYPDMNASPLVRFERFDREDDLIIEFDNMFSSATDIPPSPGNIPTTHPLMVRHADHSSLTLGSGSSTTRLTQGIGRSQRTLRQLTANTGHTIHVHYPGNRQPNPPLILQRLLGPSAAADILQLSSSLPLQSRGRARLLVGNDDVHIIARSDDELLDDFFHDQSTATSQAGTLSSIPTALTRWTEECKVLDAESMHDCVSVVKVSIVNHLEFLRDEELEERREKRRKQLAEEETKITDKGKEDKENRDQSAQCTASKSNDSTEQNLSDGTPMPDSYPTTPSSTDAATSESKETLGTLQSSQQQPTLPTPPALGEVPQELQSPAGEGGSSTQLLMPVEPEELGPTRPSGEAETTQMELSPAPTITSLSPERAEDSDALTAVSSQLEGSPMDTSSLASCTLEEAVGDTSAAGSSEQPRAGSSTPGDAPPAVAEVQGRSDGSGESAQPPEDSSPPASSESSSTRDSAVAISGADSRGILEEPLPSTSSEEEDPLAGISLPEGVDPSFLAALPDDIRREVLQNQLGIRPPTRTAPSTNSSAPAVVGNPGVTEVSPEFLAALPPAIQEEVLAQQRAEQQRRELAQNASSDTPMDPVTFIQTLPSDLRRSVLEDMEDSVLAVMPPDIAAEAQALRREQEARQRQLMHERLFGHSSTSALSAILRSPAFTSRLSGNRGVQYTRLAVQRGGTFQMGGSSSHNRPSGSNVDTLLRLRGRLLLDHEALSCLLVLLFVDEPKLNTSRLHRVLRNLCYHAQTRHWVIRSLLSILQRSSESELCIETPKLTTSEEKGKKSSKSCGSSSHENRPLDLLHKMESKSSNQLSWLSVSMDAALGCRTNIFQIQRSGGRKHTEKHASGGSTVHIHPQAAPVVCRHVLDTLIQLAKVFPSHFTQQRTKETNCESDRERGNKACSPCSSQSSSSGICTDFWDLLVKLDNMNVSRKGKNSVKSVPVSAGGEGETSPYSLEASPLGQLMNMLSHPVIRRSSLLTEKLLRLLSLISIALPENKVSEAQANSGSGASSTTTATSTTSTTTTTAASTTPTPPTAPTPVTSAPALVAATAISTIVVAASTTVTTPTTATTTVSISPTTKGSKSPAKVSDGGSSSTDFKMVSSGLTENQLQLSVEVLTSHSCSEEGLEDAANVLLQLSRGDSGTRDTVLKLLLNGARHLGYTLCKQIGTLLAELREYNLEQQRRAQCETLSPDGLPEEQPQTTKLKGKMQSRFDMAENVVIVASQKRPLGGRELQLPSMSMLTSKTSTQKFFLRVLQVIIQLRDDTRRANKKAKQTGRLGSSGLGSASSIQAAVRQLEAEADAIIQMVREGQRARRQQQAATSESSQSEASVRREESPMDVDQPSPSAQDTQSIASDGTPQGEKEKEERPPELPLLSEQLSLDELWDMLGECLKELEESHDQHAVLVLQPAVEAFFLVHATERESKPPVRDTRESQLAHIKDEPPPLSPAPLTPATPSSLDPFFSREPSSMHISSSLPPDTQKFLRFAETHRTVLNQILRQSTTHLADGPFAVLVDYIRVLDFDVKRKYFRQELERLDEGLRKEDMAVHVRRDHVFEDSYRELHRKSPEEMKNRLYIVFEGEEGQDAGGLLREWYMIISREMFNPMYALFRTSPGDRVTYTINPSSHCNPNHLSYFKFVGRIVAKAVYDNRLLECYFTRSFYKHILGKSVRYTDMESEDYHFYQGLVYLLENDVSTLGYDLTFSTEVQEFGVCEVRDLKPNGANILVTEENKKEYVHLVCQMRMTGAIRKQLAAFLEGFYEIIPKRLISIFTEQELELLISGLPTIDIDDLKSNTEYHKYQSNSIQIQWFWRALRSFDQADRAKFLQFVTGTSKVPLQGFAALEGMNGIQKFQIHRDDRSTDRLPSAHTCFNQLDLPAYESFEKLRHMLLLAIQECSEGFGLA
UniProt Q7Z2W4: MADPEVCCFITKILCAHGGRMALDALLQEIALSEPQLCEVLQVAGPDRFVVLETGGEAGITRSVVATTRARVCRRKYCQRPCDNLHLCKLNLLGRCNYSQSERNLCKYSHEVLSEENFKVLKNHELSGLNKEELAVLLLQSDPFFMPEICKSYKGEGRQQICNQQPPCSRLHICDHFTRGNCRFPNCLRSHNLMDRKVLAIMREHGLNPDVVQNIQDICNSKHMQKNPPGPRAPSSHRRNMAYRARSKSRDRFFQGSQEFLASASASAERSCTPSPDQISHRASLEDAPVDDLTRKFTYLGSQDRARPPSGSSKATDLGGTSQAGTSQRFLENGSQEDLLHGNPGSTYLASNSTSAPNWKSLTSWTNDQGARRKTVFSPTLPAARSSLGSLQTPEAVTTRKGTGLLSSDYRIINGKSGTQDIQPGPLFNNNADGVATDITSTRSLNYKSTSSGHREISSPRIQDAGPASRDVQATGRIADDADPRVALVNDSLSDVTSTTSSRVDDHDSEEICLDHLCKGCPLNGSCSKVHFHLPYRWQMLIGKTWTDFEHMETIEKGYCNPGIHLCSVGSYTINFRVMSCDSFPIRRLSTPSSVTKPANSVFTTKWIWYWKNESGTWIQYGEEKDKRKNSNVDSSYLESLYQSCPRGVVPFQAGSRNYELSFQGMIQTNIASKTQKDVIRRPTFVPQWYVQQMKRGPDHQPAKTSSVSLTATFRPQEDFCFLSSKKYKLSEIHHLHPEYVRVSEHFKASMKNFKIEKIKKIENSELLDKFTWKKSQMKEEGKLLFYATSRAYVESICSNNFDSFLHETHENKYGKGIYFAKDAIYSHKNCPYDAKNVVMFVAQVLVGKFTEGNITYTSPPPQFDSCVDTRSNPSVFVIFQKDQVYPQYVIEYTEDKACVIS
UniProt P20700: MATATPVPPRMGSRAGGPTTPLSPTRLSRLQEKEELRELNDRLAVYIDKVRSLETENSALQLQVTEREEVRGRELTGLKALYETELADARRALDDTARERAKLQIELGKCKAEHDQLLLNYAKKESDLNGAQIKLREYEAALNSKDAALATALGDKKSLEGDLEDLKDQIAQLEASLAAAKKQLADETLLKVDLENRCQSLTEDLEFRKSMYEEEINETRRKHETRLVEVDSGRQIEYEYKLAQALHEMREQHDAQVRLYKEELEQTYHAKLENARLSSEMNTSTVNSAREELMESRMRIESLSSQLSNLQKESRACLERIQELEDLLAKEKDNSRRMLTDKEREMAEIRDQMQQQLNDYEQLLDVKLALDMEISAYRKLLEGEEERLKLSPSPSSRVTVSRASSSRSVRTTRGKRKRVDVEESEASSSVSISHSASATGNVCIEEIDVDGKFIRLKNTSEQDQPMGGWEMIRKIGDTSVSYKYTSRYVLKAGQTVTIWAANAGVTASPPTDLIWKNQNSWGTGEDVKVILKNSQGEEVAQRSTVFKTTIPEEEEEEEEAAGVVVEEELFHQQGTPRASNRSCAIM

These are yes or no findings as the source states them, for the method shown. Binding seen in cells or lysates may run through a third protein. Here binding means that the protein was enriched with, or labelled near, the bait; the list need not be complete. Where a sequence is shown, tags or fusion partners need not be part of it.

To fix the notation:
T1: GFP-tagged human gigaxonin (human) (UniProt Q9H2C0)
T1 sequence: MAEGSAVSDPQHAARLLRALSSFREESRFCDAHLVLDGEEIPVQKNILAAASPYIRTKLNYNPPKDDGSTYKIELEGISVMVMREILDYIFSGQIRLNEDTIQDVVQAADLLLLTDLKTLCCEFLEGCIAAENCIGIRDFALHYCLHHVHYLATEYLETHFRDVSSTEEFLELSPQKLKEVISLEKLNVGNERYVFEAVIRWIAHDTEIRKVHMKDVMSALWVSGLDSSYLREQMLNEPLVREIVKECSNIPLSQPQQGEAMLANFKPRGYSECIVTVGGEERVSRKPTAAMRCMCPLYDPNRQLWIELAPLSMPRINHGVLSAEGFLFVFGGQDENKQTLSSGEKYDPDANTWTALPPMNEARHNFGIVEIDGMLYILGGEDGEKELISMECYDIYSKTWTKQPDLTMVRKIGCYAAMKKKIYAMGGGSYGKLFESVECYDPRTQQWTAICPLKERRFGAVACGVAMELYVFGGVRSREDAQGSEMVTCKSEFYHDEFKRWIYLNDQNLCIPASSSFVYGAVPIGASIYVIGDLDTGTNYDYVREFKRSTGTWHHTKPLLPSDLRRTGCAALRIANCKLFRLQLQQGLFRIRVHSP

B1: TRIM38 (protein, UniProt O00635 1-465)
chain: MASTTSTKKMMEEATCSICLSLMTNPVSINCGHSYCHLCITDFFKNPSQKQLRQETFCCPQCRAPFHMDSLRPNKQLGSLIEALKETDQEMSCEEHGEQFHLFCEDEGQLICWRCERAPQHKGHTTALVEDVCQGYKEKLQKAVTKLKQLEDRCTEQKLSTAMRITKWKEKVQIQRQKIRSDFKNLQCFLHEEEKSYLWRLEKEEQQTLSRLRDYEAGLGLKSNELKSHILELEEKCQGSAQKLLQNVNDTLSRSWAVKLETSEAVSLELHTMCNVSKLYFDVKKMLRSHQVSVTLDPDTAHHELILSEDRRQVTRGYTQENQDTSSRRFTAFPCVLGCEGFTSGRRYFEVDVGEGTGWDLGVCMENVQRGTGMKQEPQSGFWTLRLCKKKGYVALTSPPTSLHLHEQPLLVGIFLDYEAGVVSFYNGNTGCHIFTFPKASFSDTLRPYFQVYQYSPLFLPPPGD
B2: lamin B2 (protein, UniProt Q03252 1-620)
chain: MSPPSPGRRREQRRPRAAATMATPLPGRAGGPATPLSPTRLSRLQEKEELRELNDRLAHYIDRVRALELENDRLLLKISEKEEVTTREVSGIKALYESELADARRVLDETARERARLQIEIGKLRAELDEVNKSAKKREGELTVAQGRVKDLESLFHRSEVELAAALSDKRGLESDVAELRAQLAKAEDGHAVAKKQLEKETLMRVDLENRCQSLQEELDFRKSVFEEEVRETRRRHERRLVEVDSSRQQEYDFKMAQALEELRSQHDEQVRLYKLELEQTYQAKLDSAKLSSDQNDKAASAAREELKEARMRLESLSYQLSGLQKQASAAEDRIRELEEAMAGERDKFRKMLDAKEQEMTEMRDVMQQQLAEYQELLDVKLALDMEINAYRKLLEGEEERLKLSPSPSSRVTVSRATSSSSGSLSATGRLGRSKRKRLEVEEPLGSGPSVLGTGTGGSGGFHLAQQASASGSVSIEEIDLEGKFVQLKNNSDKDQSLGNWRIKRQVLEGEEIAYKFTPKYILRAGQMVTVWAAGAGVAHSPPSTLVWKGQSSWGTGESFRTVLVNADGEEVAMRTVKKSSVMRENENGEEEEEEAEFGEEDLFHQQGDPRTTSRGCYVM
B3: KHSRP (protein, UniProt Q92945 1-711)
chain: MSDYSTGGPPPGPPPPAGGGGGAGGAGGGPPPGPPGAGDRGGGGPGGGGPGGGSAGGPSQPPGGGGPGIRKDAFADAVQRARQIAAKIGGDAATTVNNSTPDFGFGGQKRQLEDGDQPESKKLASQGDSISSQLGPIHPPPRTSMTEEYRVPDGMVGLIIGRGGEQINKIQQDSGCKVQISPDSGGLPERSVSLTGAPESVQKAKMMLDDIVSRGRGGPPGQFHDNANGGQNGTVQEIMIPAGKAGLVIGKGGETIKQLQERAGVKMILIQDGSQNTNVDKPLRIIGDPYKVQQACEMVMDILRERDQGGFGDRNEYGSRIGGGIDVPVPRHSVGVVIGRSGEMIKKIQNDAGVRIQFKQDDGTGPEKIAHIMGPPDRCEHAARIINDLLQSLRSGPPGPPGGPGMPPGGRGRGRGQGNWGPPGGEMTFSIPTHKCGLVIGRGGENVKAINQQTGAFVEISRQLPPNGDPNFKLFIIRGSPQQIDHAKQLIEEKIEGPLCPVGPGPGGPGPAGPMGPFNPGPFNQGPPGAPPHAGGPPPHQYPPQGWGNTYPQWQPPAPHDPSKAAAAAADPNAAWAAYYSHYYQQPPGPVPGPAPAPAAPPAQGEPPQPPPTGQSDYTKAWEEYYKKIGQQPQQPGAPPQQDYTKAWEEYYKKQAQVATGGGPGAPPGSQPDYSAAWAEYYRQQAAYYGQTPGPGGPQPPPTQQGQQQAQ
B4: NUDCD3 (protein, UniProt Q8IVD9 1-361)
chain: METGAAELYDQALLGILQHVGNVQDFLRVLFGFLYRKTDFYRLLRHPSDRMGFPPGAAQALVLQVFKTFDHMARQDDEKRRQELEEKIRRKEEEEAKTVSAAAAEKEPVPVPVQEIEIDSTTELDGHQEVEKVQPPGPVKEMAHGSQEAEAPGAVAGAAEVPREPPILPRIQEQFQKNPDSYNGAVRENYTWSQDYTDLEVRVPVPKHVVKGKQVSVALSSSSIRVAMLEENGERVLMEGKLTHKINTESSLWSLEPGKCVLVNLSKVGEYWWNAILEGEEPIDIDKINKERSMATVDEEEQAVLDRLTFDYHQKLQGKPQSHELKVHEMLKKGWDAEGSPFRGQRFDPAMFNISPGAVQF
B5: keratin 18 (protein, UniProt P05783 1-430)
chain: MSFTTRSTFSTNYRSLGSVQAPSYGARPVSSAASVYAGAGGSGSRISVSRSTSFRGGMGSGGLATGIAGGLAGMGGIQNEKETMQSLNDRLASYLDRVRSLETENRRLESKIREHLEKKGPQVRDWSHYFKIIEDLRAQIFANTVDNARIVLQIDNARLAADDFRVKYETELAMRQSVENDIHGLRKVIDDTNITRLQLETEIEALKEELLFMKKNHEEEVKGLQAQIASSGLTVEVDAPKSQDLAKIMADIRAQYDELARKNREELDKYWSQQIEESTTVVTTQSAEVGAAETTLTELRRTVQSLEIDLDSMRNLKASLENSLREVEARYALQMEQLNGILLHLESELAQTRAEGQRQAQEYEALLNIKVKLEAEIATYRRLLEDGEDFNLGDALDSSNSMQTIQKTTTRRIVDGKVVSETNDTKVLRH

This test concerns the target T1, GFP-tagged human gigaxonin (human). Briefly: affinity purification with mass spectrometry; GFP-Gig from TritonX-100-soluble HEK293 lysate captured on TurboGFP-Trap magnetic agarose beads overnight at 4°C; on-bead tryptic digestion, LC-MS/MS; compared with untransfected and GFP vector-transfected cells.
Take vimentin (from UniProt P08670 1-466): the binding result is listed as “binds”. With PFDN5 (from UniProt Q99471 1-154), the binding result is “binds”. Regarding STUB1 (from UniProt Q9UNE7 1-303), the binding entry is “binds”. In the case of “TAR DNA-binding protein 43 (from UniProt Q13148 1-414)”, the binding entry is given as “binds”. Consider HUWE1 (from UniProt Q7Z6Z7 1-4374), for which the binding result is listed as “binds”. Turning to ZC3HAV1 (from UniProt Q7Z2W4 1-902), the binding entry is reported as “binds”. Turning to PABPC1 (from UniProt P11940 1-636), the binding result was “binds”.

lamin B1 (from UniProt P20700 1-586): the binding result is recorded as “binds”.

For the molecule ARIH1 (from UniProt Q9Y4X5 1-557), the binding entry is on record as “binds”. In the case of B1, the binding result was “binds”. Consider B2, for which the binding entry is given as “binds”. Turning to B3, the binding entry was “binds”.

For B4, the binding result is “binds”. In the case of B5, the binding result was “binds”.
